Measurements published in PMC8009878.
Results are given in words; binding and its absence hold for the method and conditions named. Binding seen in cells or lysates may run through a third protein. Some entries that bind do so weakly or less than the wild type.

Protein sequences, listed by entry. Tags and fused reporters are not part of them. Residues count along the entry.
UniProt P30101, residues 25-505: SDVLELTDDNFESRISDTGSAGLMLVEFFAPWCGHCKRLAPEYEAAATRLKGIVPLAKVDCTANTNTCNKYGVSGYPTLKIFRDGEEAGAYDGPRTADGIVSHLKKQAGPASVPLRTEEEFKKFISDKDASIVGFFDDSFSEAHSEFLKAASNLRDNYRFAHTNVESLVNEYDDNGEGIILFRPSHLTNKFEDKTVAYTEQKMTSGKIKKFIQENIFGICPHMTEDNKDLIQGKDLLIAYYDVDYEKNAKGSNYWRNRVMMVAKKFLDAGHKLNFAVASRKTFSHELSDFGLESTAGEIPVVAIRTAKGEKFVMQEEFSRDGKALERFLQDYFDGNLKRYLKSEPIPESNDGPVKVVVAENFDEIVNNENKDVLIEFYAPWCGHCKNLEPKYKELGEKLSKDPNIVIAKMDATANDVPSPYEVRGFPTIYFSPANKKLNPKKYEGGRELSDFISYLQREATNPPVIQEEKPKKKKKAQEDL
UniProt P53350: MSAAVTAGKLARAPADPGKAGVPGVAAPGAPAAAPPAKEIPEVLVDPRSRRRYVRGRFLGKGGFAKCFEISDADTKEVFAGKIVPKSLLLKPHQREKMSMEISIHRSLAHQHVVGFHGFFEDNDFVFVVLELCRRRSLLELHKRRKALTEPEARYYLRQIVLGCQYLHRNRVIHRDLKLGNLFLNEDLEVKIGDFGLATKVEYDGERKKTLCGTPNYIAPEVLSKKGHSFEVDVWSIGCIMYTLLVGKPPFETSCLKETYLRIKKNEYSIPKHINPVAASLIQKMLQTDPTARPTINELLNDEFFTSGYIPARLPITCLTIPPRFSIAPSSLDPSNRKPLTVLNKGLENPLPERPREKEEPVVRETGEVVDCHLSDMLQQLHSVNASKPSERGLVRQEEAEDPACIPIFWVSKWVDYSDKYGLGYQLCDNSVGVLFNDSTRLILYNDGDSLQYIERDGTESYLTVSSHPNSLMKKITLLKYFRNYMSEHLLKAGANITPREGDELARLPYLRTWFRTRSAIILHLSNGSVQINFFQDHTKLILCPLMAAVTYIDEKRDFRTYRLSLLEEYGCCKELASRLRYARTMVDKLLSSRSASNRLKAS
UniProt P01106: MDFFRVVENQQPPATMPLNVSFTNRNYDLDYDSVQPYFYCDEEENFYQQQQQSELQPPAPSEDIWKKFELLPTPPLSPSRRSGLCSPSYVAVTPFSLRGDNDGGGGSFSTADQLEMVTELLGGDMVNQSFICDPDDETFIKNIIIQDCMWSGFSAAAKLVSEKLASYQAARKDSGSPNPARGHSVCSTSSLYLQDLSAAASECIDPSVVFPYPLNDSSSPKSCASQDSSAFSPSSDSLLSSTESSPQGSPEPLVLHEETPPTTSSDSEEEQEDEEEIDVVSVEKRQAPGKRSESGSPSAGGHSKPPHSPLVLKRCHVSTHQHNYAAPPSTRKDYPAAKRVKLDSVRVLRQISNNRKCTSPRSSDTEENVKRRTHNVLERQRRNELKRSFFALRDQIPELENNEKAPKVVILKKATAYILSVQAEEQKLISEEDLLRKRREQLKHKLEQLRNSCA
UniProt P31749: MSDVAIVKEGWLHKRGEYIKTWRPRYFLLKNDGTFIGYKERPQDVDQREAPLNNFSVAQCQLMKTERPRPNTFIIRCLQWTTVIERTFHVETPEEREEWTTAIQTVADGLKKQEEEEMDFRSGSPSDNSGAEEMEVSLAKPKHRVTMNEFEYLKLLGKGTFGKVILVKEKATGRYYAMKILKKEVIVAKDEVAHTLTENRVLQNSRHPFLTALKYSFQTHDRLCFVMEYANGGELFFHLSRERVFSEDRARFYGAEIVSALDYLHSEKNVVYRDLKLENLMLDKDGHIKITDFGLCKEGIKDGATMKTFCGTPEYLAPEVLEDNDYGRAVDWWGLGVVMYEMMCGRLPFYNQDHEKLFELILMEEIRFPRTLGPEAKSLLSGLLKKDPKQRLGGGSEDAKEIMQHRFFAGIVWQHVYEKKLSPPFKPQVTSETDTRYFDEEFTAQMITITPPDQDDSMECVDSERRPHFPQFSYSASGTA

Molecular target: ERp57-V5 (disulfide isomerase ERp57 with a C-terminal V5-tag) (UniProt P30101)
Test: co-IP; HEK293T co-transfected with ERp57-V5 and one partner plasmid, 72 h; lysis in 50 mM Tris pH 7.3, 150 mM NaCl, 1% NP-40; V5 antibody 4 h at 4 °C, magnetic beads 1 h, 4 washes; control IP: lysate without V5 antibody; western blot with anti-FLAG, anti-HA, anti-GFP or anti-c-Myc

Row | binding | Substance
1 | no binding | EYFP-PLK1 (polo-like kinase 1) (from UniProt P53350 1-603)
2 | binds | Flag-c-Myc (from UniProt P01106 1-454)
3 | no binding | HA-AKT1 (from UniProt P31749 1-480)
